Measurements taken from publication PMC3545278 (Journal of pharmaceutical and biomedical analysis, 2012).

Legend:
[1] = Plasma stability, 37°C for 20 min, human plasma; assay type: in vitro ADME; conditions: 5% CO2, 20 min, mean ± SEM
Ultrafiltration [2] = conditions: human, human plasma
Ultrafiltration [3] = assay type: in vitro ADME; conditions: mouse, mouse plasma

Row | %Stability [1] | recovery at 20 min, 10 μM (Ultrafiltration [2]) | recovery at 20 min, 10 μM (Ultrafiltration [3]) | SMILES
1 | 104.2±1.0% |  |  | CC(C)NCC(O)COc1ccc(CC(N)=O)cc1 (stereo not drawn) [Atenolol]
2 |  | 106 ± 2.7% | 112 ± 3.7% | Cc1cc(NS(=O)(=O)c2ccc(N)cc2)no1 [Sulfamethoxazole]
